Some of the results follow.

Common to all, as to test: glycan array binding signal (z-score within array); higher = stronger binding
Conditions in all cases: glycan notation: IUPAC condensed, linker removed

For assay [1], the target named is Neu5Gc(a2-8)Neu5Gc(a2-3)Gal(b1-4)GlcNAc(b1-3)Gal(b1-4)GlcNAc. The method, boiled down: (§1)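 From the Consortium for Functional Glycomics database, 3228 arrays were curated, keeping only those whose protein sequence was available. Binding is given as a within-array Z-score averaged across arrays sharing a protein sequence and across linkers. Negative Z-scores can be read as non-binding.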

The target in assay [2] is Neu5Gc(a2-8)Neu5Gc(a2-6)Gal(b1-4)GlcNAc. The method, boiled down:
as §1

For assay [3], the target named is Neu5Gc(b2-6)Gal(b1-4)GlcNAc. The method, boiled down:
as §1

B1: Erv46-EDTA (Saccharomyces cerevisiae), P39727 (protein)
chain: MKFLVNVALVFMVVYISYIYAAAPEHHHHHHDYDIPTTENLYFQGAMDSVVTRPQLVVDRDRHAKLELNMDVTFPSMPCDLVNLDIMDDSGEMQLDILDAGFTMSRLNSEGRPVGDATELHVGGNGDGTAPVNNDPNYCGPCYGAKDQSQNENLAQEEKVCCQDCDAVRSAYLEAGWAFFDGKNIEQCEREGYVSKINEHLNEGCRIKGSAQINRIQGNLHFAPGKPYQNAYGHFHDTSLYDKTSNLNFNHIINHLSFGKPIQSHSKLLGNDKRHGGAVVATSPLDGRQVFPDRNTHFHQFSYFAKIVPTRYEYLDNVVIETAQFSATFHSRPLAGGRDKDHPNTLHVRGGIPGMFVFFEMSPLKVINKEQ
Consider B1, for which the “glycan array binding signal (z-score)” value is -0.449 in assay [1], -0.091 in assay [2] and -0.611 in assay [3].

The values are drawn from the supplement of paper PMC8728848.
